No constants are given. Whether binding was seen depends on the method and setting. Some binding calls cover weakened binding; strength is not graded here.
Assays:
[1] = molecular target: human CD3 epsilon, cell surface expressed (human PBMCs / human T cells) (human) (UniProt P07766); experiment: cell binding, flow cytometry on human PBMCs
[2] = molecular target: human CD3 epsilon, cell surface expressed (human PBMCs / human T cells) (human) (UniProt P07766); experiment: flow cytometry on human PBMCs, IgG titration
[3] = molecular target: human CD3 epsilon, cell surface expressed (human PBMCs / human T cells) (human) (UniProt P07766); experiment: flow cytometry (FACS) on human PBMCs, FabCys

Sequences of proteins named here, by UniProt entry; tags and fusion partners are left off. A change or cut given only in a name is not applied to a line headed by its entry.
UniProt P07766: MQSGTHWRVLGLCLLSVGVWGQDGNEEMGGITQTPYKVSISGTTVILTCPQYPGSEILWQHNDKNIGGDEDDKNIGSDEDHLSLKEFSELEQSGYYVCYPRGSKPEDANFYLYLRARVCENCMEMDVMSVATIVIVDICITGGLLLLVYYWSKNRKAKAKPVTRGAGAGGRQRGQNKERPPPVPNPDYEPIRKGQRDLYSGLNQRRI

| Binder | binding [1] | binding [2] | binding [3] |
| --- | --- | --- | --- |
| MAB-1 (parental) (antibody, V domains shown) VH: EVQLVESGGGLVQPGGSLRLSCAASGFTFSSYWMSWVRQAPGKGLEWVANIKQDGSEKYYVDSVKGRFTISRDNAKNSLYLQMNSLRAEDTAVYYCARGYSAEFAHRSGLDVWGQGTLVTVSS VL: QSVLTQPPSASGTPGQRVTISCSGSSSNIGSNYVYWYQQLPGTAPKLLIYRNNQRPSGVPDRFSGSKSGTSASLAISGLRSEDEADYYCAAWDHHRSGAVFGGGTKLTVLG | binds | binds |  |
| MAB-16_h_FabCys (Fab, V domains shown) VH: EVQLVESGGGLVQPGGSLRLSCAASGFTFRSHYMTWVRQAPGKGLEWVANIDYEGTRTYYAESVKGRFTISRDNAKNSLYLQMNSLRAEDTAVYYCARGYSAEFAHRSGLDVWGQGTLVTVSS VL: QSVLTQPPSASGTPGQRVTISCSGSSSNIGSNYVYWYQQLPGTAPKLLIYRNNQRPSGVPDRFSGSKSGTSASLAISGLRSEDEADYYCAGWDRRLHGAVFGGGTKLTVLG |  |  | binds |
| MAB-7_h_FabCys (Fab, V domains shown) VH: EVQLVESGGGLVQPGGSLRLSCAASGFTFKSYYMSWVRQAPGKGLEWVANIDYQSQHAYYAESVKGRFTISRDNAKNSLYLQMNSLRAEDTAVYYCARGYSAEFAHRSGLDVWGQGTLVTVSS VL: QSVLTQPPSASGTPGQRVTISCSGSSSNIGSNYVYWYQQLPGTAPKLLIYRNNQRPSGVPDRFSGSKSGTSASLAISGLRSEDEADYYCAAWDRHSHGAVFGGGTKLTVLG |  |  | binds |
| MAB-8_h_FabCys (Fab, V domains shown) VH: EVQLVESGGGLVQPGGSLRLSCAASGFTFRSHYMTWVRQAPGKGLEWVANIDYEGTRTYYAESVKGRFTISRDNAKNSLYLQMNSLRAEDTAVYYCARGYSAEFAHRSGLDVWGQGTLVTVSS VL: QSVLTQPPSASGTPGQRVTISCSGSSSNIGSNYVYWYQQLPGTAPKLLIYRNNQRPSGVPDRFSGSKSGTSASLAISGLRSEDEADYYCAAWDRHSHGAVFGGGTKLTVLG |  |  | binds |
| MAB-9_h_FabCys (Fab, V domains shown) VH: EVQLVESGGGLVQPGGSLRLSCAASGFTFRSHYMTWVRQAPGKGLEWVANIDYEGTRTYYAESVKGRFTISRDNAKNSLYLQMNSLRAEDTAVYYCARGYSAEFAHRSGLDVWGQGTLVTVSS VL: QSVLTQPPSASGTPGQRVTISCSGSSSNIGINYVYWYQQLPGTAPKLLIYRNNIRPSGVPDRFSGSKSGTSASLAISGLRSEDEADYYCAAWDRHSHGAVFGGGTKLTVLG |  |  | binds |
| MAB-12_h_FabCys (Fab, V domains shown) VH: EVQLVESGGGLVQPGGSLRLSCAASGFTFRSHYMTWVRQAPGKGLEWVANIDYEGTRTYYAESVKGRFTISRDNAKNSLYLQMNSLRAEDTAVYYCARGYSAEFAHRSGLDVWGQGTLVTVSS VL: QSVLTQPPSASGTPGQRVTISCSGSSSNIGANYVYWYQQLPGTAPKLLIYRNNQRPSGVPDRFSGSKSGTSASLAISGLRSEDEADYYCAAWDRHSHGAVFGGGTKLTVLG |  |  | binds |
| MAB-13_h_FabCys (Fab, V domains shown) VH: EVQLVESGGGLVQPGGSLRLSCAASGFTFRSHYMTWVRQAPGKGLEWVANIDYEGTRTYYAESVKGRFTISRDNAKNSLYLQMNSLRAEDTAVYYCARGYSAEFAHRSGLDVWGQGTLVTVSS VL: QSVLTQPPSASGTPGQRVTISCSGSSSNIGINYVYWYQQLPGTAPKLLIYRNNQRPSGVPDRFSGSKSGTSASLAISGLRSEDEADYYCAAWDRHSHGAVFGGGTKLTVLG |  |  | binds |

From US20230357398A1
